# PubChem BioAssay AID504774, Drosophila RNAi Screening Center, 2011
# Purpose: 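Fly genes whose loss alters survival after alkylation damage to DNA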 (primary screen)
# Cell system: Drosophila Kc167 cells
# Reagents: long dsRNA against Drosophila genes, about 0.25 µg dsRNA per well
# Timing: about 6 days: 3 days knock-down, then 3 days with or without MMS
# Challenge: methyl methanesulphonate 0.004% (w/v) for 3 days after knock-down
# Detection: 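ATP-dependent luminescence as a measure of live cells in MMS-exposed wells, quantile normalised within each plate, with replicate values also given as a mean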
# Reading the numbers: mean viability with MMS and viability with MMS: higher = more surviving cells after MMS
# The deposit covers about 23,000 reagents; below is a random part of those with a known target gene and a result. 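Values are quantile-normalised luminescence on an arbitrary scale; higher means more cells surviving MMS.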 Names joined by + are all predicted targets of the reagent.
Gene,amplicon,mean viability with MMS,"viability with MMS, replicate 1","viability with MMS, replicate 2"
CG13138,DRSC02235,3.88e6,4.25e6,4.58e6
CG18731,DRSC15377,3.40e6,3.79e6,3.86e6
CG32021 (retired record),DRSC17206,3.48e6,3.96e6,3.95e6
SecS,DRSC12222,3.76e6,4.31e6,4.16e6
scpr-A + scpr-C,DRSC15737,3.59e6,4.03e6,4.09e6
Naxe,DRSC18251,3.58e6,4.11e6,3.98e6
CG15256,DRSC01940,3.54e6,3.97e6,4.07e6
zuc,DRSC02160,4.05e6,4.23e6,4.98e6
mRpL45,DRSC16146,3.68e6,4.29e6,4.04e6
CG13204,DRSC06328,3.56e6,4.11e6,4.02e6
Ugt35D1,DRSC15107,3.27e6,3.78e6,3.72e6
how,DRSC16966,3.10e6,3.64e6,3.65e6
CG8086,DRSC03078,3.53e6,4.25e6,3.76e6
CG8086,DRSC03079,3.68e6,4.13e6,4.20e6
Dgp-1,DRSC07400,3.63e6,4.00e6,4.20e6
Nubp1,DRSC02639,3.42e6,3.81e6,3.90e6
Arl2,DRSC14117,3.47e6,3.93e6,3.96e6
eIF4EHP,DRSC13653,3.67e6,4.11e6,4.18e6
eIF4EHP,DRSC14265,3.48e6,3.95e6,3.96e6
CG12121,DRSC17816,3.38e6,3.67e6,4.01e6
Ir52d,DRSC06264,3.34e6,4.01e6,3.83e6
CG33502 + CG32857 + CG32500,DRSC20817,2.21e6,3.93e6,3.67e6
CG33502 + CG32857 + CG32500,DRSC21038,3.54e6,4.08e6,3.96e6
lectin-28C,DRSC03010,3.61e6,4.08e6,4.10e6
CG13228,DRSC06348,3.48e6,3.97e6,3.86e6
CG4297,DRSC00651,3.47e6,3.85e6,4.02e6
chif,DRSC03508,3.78e6,4.21e6,4.39e6
Art9,DRSC16584,3.50e6,3.99e6,3.94e6
RpL37-1,DRSC20149,3.53e6,3.99e6,4.02e6
RpL37-1,DRSC21646,2.94e6,3.62e6,3.67e6
Dysb,DRSC10730,3.36e6,3.75e6,3.79e6
CG33784,DRSC12764,3.62e6,4.05e6,4.12e6
Fatp (retired record),DRSC03054,3.45e6,3.93e6,3.87e6
CG6168,DRSC10596,3.55e6,4.01e6,4.04e6
Aptx,DRSC15768,3.66e6,4.43e6,3.87e6
CG30053,DRSC07260,3.52e6,3.91e6,4.02e6
NaPi-III,DRSC10893,3.59e6,4.17e6,3.98e6
NaPi-III,DRSC10894,3.03e6,3.47e6,3.52e6
NaPi-III,DRSC22953,3.65e6,4.11e6,4.11e6
Gnf1,DRSC12351,3.24e6,3.70e6,3.62e6
Muc12Ea,DRSC19937,3.62e6,4.05e6,4.14e6
CG42712 (retired record),DRSC01038,3.45e6,4.02e6,3.80e6
lncRNA:sphinx,DRSC17199,3.47e6,3.90e6,3.97e6
dpr8,DRSC19406,3.69e6,4.09e6,4.20e6
dpr8,DRSC19600,3.69e6,4.21e6,4.10e6
dpr8,DRSC19938,3.63e6,4.15e6,4.07e6
dpr8,DRSC19939,3.61e6,4.06e6,4.12e6
CG14480,DRSC06452,3.76e6,4.37e6,4.10e6
Alg9,DRSC14407,3.25e6,3.72e6,3.73e6
spn-A,DRSC16812,3.34e6,3.85e6,3.63e6
Peritrophin-A,DRSC20570,3.56e6,4.07e6,4.01e6
Octbeta2R,DRSC15350,3.73e6,4.20e6,4.10e6
Octbeta2R,DRSC16165,3.59e6,4.02e6,4.08e6
Hsp67Bc,DRSC11193,3.58e6,4.16e6,3.94e6
rec,DRSC14998,3.57e6,4.18e6,3.95e6
rec,DRSC15656,3.59e6,4.04e6,4.12e6
Obp59a,DRSC04160,3.52e6,3.95e6,4.02e6
CG8671,DRSC03102,3.50e6,3.99e6,3.93e6
CG8671,DRSC03103,3.51e6,3.93e6,4.02e6
hubl,DRSC06825,3.55e6,3.96e6,4.08e6
kar,DRSC14496,3.64e6,4.17e6,4.13e6
SIFa,DRSC04480,3.52e6,4.08e6,3.89e6
CG42514,DRSC10428,3.43e6,3.87e6,3.88e6
sip2,DRSC03154,3.48e6,3.93e6,3.96e6
CG32163,DRSC09442,3.51e6,3.96e6,4.01e6
pod1,DRSC18362,3.65e6,4.19e6,4.19e6
CG17059,DRSC06654,3.62e6,4.04e6,4.13e6
CG4390,DRSC15572,3.47e6,3.94e6,3.93e6
ssx,DRSC18492,3.38e6,3.79e6,3.90e6
Vps28,DRSC06168,3.45e6,3.91e6,3.87e6
gek,DRSC04688,3.78e6,4.14e6,4.41e6
CG14915,DRSC02399,3.65e6,4.05e6,4.23e6
HUWE1,DRSC20089,3.64e6,4.13e6,4.09e6
CG6294 + CG6299,DRSC19980,3.58e6,4.01e6,4.10e6
CG13748,DRSC06419,3.64e6,4.16e6,4.02e6
CG17107,DRSC02575,3.25e6,3.94e6,3.84e6
CG17107,DRSC22627,3.53e6,3.99e6,4.03e6
CG10587,DRSC11627,3.57e6,4.00e6,4.09e6
CG13082,DRSC02186,3.48e6,3.89e6,3.98e6
CG44014,DRSC14995,3.69e6,4.10e6,4.29e6
mmy,DRSC02002,3.42e6,3.77e6,3.88e6
RFeSP,DRSC00702,3.43e6,3.83e6,3.91e6
CG14966,DRSC08425,3.40e6,3.85e6,3.87e6
CG1105,DRSC12528,3.43e6,3.88e6,3.84e6
CG7376,DRSC10829,3.67e6,4.24e6,4.08e6
CG15765,DRSC18071,3.37e6,3.54e6,3.88e6
CG15765,DRSC23026,3.67e6,4.08e6,4.24e6

4 neighbouring reagents already listed:
Gene,amplicon,mean viability with MMS,"viability with MMS, replicate 1","viability with MMS, replicate 2"
ssx,DRSC18492,3.38e6,3.79e6,3.90e6
Vps28,DRSC06168,3.45e6,3.91e6,3.87e6
gek,DRSC04688,3.78e6,4.14e6,4.41e6
CG14915,DRSC02399,3.65e6,4.05e6,4.23e6
